These results are taken from paper PMC11094040.

The assay addresses T1, BmAgo3 (silkworm (endogenous in BmN4)) (UniProt A9ZSZ2).
T1 sequence: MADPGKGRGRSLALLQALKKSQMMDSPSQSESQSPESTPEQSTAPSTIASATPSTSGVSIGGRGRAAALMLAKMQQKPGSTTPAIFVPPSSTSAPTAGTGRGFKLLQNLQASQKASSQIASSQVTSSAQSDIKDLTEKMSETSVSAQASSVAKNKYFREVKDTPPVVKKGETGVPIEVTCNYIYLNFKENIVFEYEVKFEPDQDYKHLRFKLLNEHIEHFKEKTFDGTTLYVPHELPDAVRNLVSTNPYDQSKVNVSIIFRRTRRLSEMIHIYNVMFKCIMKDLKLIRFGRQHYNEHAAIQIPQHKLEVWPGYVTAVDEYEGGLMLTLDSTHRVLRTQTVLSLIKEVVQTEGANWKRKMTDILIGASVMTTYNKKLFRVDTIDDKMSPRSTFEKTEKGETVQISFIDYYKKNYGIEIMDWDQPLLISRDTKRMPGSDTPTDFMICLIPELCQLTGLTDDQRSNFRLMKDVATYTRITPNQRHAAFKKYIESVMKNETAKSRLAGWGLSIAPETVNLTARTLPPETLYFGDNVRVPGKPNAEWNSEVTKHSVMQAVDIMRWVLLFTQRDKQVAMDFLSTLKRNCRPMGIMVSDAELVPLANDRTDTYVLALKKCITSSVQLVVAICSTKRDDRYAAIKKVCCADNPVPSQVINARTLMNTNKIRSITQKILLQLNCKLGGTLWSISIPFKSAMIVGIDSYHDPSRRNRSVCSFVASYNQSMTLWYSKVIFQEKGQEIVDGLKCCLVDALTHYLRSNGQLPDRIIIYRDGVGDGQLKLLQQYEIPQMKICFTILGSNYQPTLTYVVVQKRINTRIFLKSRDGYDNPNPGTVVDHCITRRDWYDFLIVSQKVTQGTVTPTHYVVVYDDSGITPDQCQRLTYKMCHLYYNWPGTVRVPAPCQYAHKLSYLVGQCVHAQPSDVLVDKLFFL
The assay can be described thus: affinity purification with mass spectrometry; anti-BmAgo3 antibody and Dynabeads Protein G on lysate of BmN4 cells treated with dsRNA targeting Rluc (control) or Siwi; buffer A (25 mM Tris-HCl pH 7.6, 150 mM NaCl, 1.5 mM MgCl2, 0.2% sodium deoxycholate, 0.1% lithium dodecyl sulfate, 0.4% NP-40), 4 °C; SDS-PAGE, CBB staining, p160 band identified by LC-MS/MS.

Results are given in words; binding and its absence hold for the method and conditions named. Binding seen in cells or lysates may run through a third protein. A yes stands for co-enrichment or nearness to the bait. Other partners may have been found.

On to “Spindle-E (Spn-E), endogenous (silkworm (endogenous in BmN4))”, for which the binding result is “binds”.
